PubChem BioAssay AID686937, Drosophila RNAi Screening Center, 2013
The screen tested about 23,000 reagents; below is an unselected part of those that have a named target and a result. 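Reduced-secretion tags in replicate 1 do not always agree with the z-scores; no criterion for assigning the tags was given.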 Not all columns of the deposit are shown. Not given: the amount of reagent.

Aim: 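Genes in the fly needed for secretion of protein constitutively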 (primary screen)
Cells: Drosophila S2 cells expressing secreted horseradish peroxidase
Reagents: long dsRNA against Drosophila genes
Time to read-out: about 5.5 days (5 days dsRNA, then 12 h reporter induction)
Treatment: reporter expression induced after 5 days of dsRNA, read 12 h later; inducer not stated
Measured: 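Chemiluminescent measurement of peroxidase in the medium 12 h after reporter induction, following 5 days of dsRNA, given as a z-score per plate; higher means more secretion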
Direction: z-score: higher = more reporter secreted into medium

z-score, replicate 1, by gene and reagent
Vps51 (GeneID 37156): DRSC06519 0.04
RecQ4 (GeneID 53438): DRSC11265 0.15
CG15362 (GeneID 33371): DRSC00392 0.29
CG43123 (GeneID 12798080): DRSC05049 0.08
CG33233 (GeneID 2769005): DRSC08239 -0.01
alpha-Man-Ib (GeneID 43436): DRSC14418 -0.44
Rab6 (GeneID 34636): DRSC03404 -0.15
CG5886 (GeneID 43125): DRSC15908 0.48
nAChRbeta2 (GeneID 42920): DRSC17010 0.33
CG14720 (GeneID 41415): DRSC14942 0.26
CG4991 (GeneID 32695): DRSC19928 0.37
Coq9 (GeneID 246650): DRSC22913 0.24
CG15249 (GeneID 31924): DRSC17978 0.39
blo (GeneID 35866): DRSC05937 0.46
qless (GeneID 43697): DRSC15103 -0.34; DRSC15507 -0.28
l(3)neo38 (GeneID 41423): DRSC14946 0.2; DRSC16138 0.21
NUCB1 (GeneID 39978): DRSC22137 -0.06
OstDelta (GeneID 37029): DRSC06980 -2.6
CG10126 (GeneID 41579): DRSC14191 0.25
fy (GeneID 34166): DRSC03533 0.23
mms4 (GeneID 36136): DRSC06249 0.39
CG13449 (GeneID 39695): DRSC09996 0.49
Rab3 (GeneID 36127): DRSC07523 0.37
CG15708 (GeneID 36805): DRSC06579 0.54
CG32266 (GeneID 317945): DRSC08062 0.12
trv (GeneID 43362): DRSC13846 0.36; DRSC14559 -0.04; DRSC14560 0.3; DRSC14561 0.39
CG43066 (GeneID 37129): DRSC06927 -1.83
CG10341 (GeneID 35125): DRSC02040 0.31

Part of the list above, reformatted:
gene,dsRNA,"z-score, replicate 1"
NUCB1 (GeneID 39978),DRSC22137,-0.06
OstDelta (GeneID 37029),DRSC06980,-2.6
CG10126 (GeneID 41579),DRSC14191,0.25
